Source: PubChem BioAssay AID901 (National Center for Advancing Translational Sciences (NCATS), 2007)
The list shows a part of the results. Further columns of the screen follow, without active or inactive calls. Compounds called inactive in the main read-out are mostly missing here. The note in brackets gives the kind of curve behind each potency; many fits are weak.

Assay: qHTS Assay for Identifying the Cell-Membrane Permeable IMPase Inhibitors
Details: CHO-M1 cells, IP1 accumulation, HTRF TR-FRET ratio; measured here: donor channel 620 nm AC50
Description: NCGC IMPase Assay Overview
Lithium has been widely used for the treatment of bipolar disorder. But lithium has a narrow therapeutic index and it can cause side effects such as thirst, weight gain, tremor, polyuria and memory problems. Although the mechanism for lithium action in treatment of bipolar disorder is still not fully understood, inhibition of inositol monophosphatase (IMPase) and the subsequent depletion of the inositol pool in living cells have been implicated as the primary therapeutic benefit of lithium therapy. Therefore, a selective IMPase inhibitor with reduced side effects might be a good drug candidate to replace lithium for the treatment of bipolar disorder. Several IMPase inhibitors have been discovered previously. However, they are not suitable for therapeutic use because of their poor cell membrane penetrability or oral bioavailability; the development of new cell-permeable IMPase inhibitors is needed.
IMPase catalyzes the hydrolysis of inositol-1-phosphate (IP1) to release free inositol. Binding of an agonist to a Gq coupled GPCR results in the activation of PLC, which hydrolyzes the PIP2 to form inositol-1,4,5-trisphosphate (IP3) and diacyl glycerol (DAG). While DAG activates protein kinase C (PKC), IP3 triggers the elevation of intracellular free Ca2+. The IP3 is very rapidly inactivated by hydrolysis to IP2, IP1 and then inositol by a series of enzymes including IMPase. Free inositols are used for synthesis of PI and thus start another inositol cycle.
To identify new cell-permeable IMPase inhibitors, we developed a cell-based IMPase assay in which the cytosolic IP1 is measured by a time-resolved fluorescence resonance energy transfer (TR-FRET) assay. In this assay, an IP1 specific antibody is used to detect the labeled IP1 tracer. When the cell lysate contains the elevated IP1 due to the inhibition of IMPase, the TR-FRET between the labeled antibody and IP1 tracer is disrupted resulting in a reduction in the total signal. Since the TR-FRET is used, this cell-based assay is a homogenous assay without cell wash and medium change that is suitable for assay miniaturization and HTS.
NCGC IMPase Assay Protocol Summary
A Chinese hamster ovary (CHO) cell line stably expressing the M1 receptor (CHO-M1) was obtained from ATCC and maintained in F-12 Kaighn's media (Invitrogen, Carlsbad, CA, 21127) supplemented with 10 % FBS, 100 units/ml penicillin, 100 ug/ml streptomycin and 250 ug/ml geneticin at 37C, 5% CO2 in a humidified atmosphere. Before the assay, aliquots of cells were frozen and stored at -135C. The assay was performed in 1536-well format. Data are reported for both the ratio of the two emission wavelengths, and also for the component 'donor' channel, Em2=620. […] AC50 values were determined from concentration-response data modeled with the standard Hill equation.
IMPase 1536-well assay protocol:
(1) Plate 4 ul/well (2000 cells) of cell suspension from frozen CHO-M1 Cells in white, tissue culture treated 1536-well plates that are cultured at 37C, 5 % CO2 for 16 to 30 hours.
(2) Add 23 nl/well of compound in DMSO solution. The final titration for each compound was between 0.6 nM and 46 uM.
(3) Add 1 ul of carbachol (50 uM in stimulation buffer containing10mM HEPES, 1mM CaCl2, 0.5 mM MgCl2, 4.2 mM KCl, 146 mM NaCl, 5.5 mM glucose, 50mM LiCl, pH 7.4.
(4) Incubation at 37C, 5 % CO2 for 30 min.
(5) Add 1 ul/well of d2-conjugated IP1 (d2-IP1) and 1 ul/well of Eu+ cryptate conjugated anti-IP1 antibody (Eu+-Ab) prepared in the cell lysis buffer, both from the IP-One kit (Cisbio, MA).
(6) Incubate at room temperature for 10 minutes.
(7) Detect the assay plate (Ex = 320, Em1 =665 and Em2 620) in a ViewLux plate reader.
inositol monophosphatase, IMPase, IMPase inhibitor, lithium, bipolar disorder, IP-One, HTRF, qHTS, NIH roadmap, NCGC
Note: In the gene ID and protein GI references for this assay, rat IMPase is referenced instead of hampster as hamster accession numbers were not available.
In the case of `Clc1ccc(-n2ncc3c(N4CCCCCC4)ncnc32)cc1`, the AC50 is reported as 112 nM [falling, full curve, poor fit]. For `O=C(O)C1=CC(=C(c2ccc(O)c(C(=O)O)c2)c2ccc(O)c(C(=O)O)c2)C=CC1=O`, the AC50 was 12600 nM [falling, single point]. For `CC(=O)Nc1cc(NC(C)=O)cc(C(=O)NC(C)(C)C)c1`, the AC50 was 63.1 nM [rising, full curve, poor fit]. With `Fc1ccc(N2CCN(C(c3cccs3)c3nnnn3CCc3ccccc3)CC2)cc1` (configuration not stated) the AC50 was 794 nM [falling, single point]. With `COc1ccc(C2CC(=O)c3cnc(NC(=O)c4ccccc4OC)nc3C2)c(OC)c1` (configuration not stated) the AC50 was 31600 nM [falling, single point]. In the case of `COc1ccc(CN(C)CCc2ccccn2)c(OC)c1OC`, the AC50 is reported as 398 nM [rising, partial curve, poor fit]. For `CC(Cc1ccccc1)N/C=C1/CC(=O)NC1=O` (configuration not stated), the AC50 was 31600 nM [falling, single point]. With `O=C(CSc1nc(-c2ccccc2)nc2c1CCCC2)c1ccc(Cl)cc1` the AC50 was 224 nM [falling, full curve, poor fit]. In the case of `Cc1cccc(NC(=O)CSc2nnc(-c3ccccc3)n2N)c1C`, the AC50 is reported as 63.1 nM [rising, full curve, poor fit]. With `CC(C)(C)c1cn(-c2ccc(F)cc2)c(=S)[nH]1` the AC50 was 6310 nM [falling, full curve]. For `COC(=O)c1ccc(Cn2nnc3sc4c(c3c2=O)CCCC4)cc1`, the AC50 was 35500 nM [falling, single point]. For `COCCn1c(SCC(=O)NCc2ccco2)nc2cccnc21`, the AC50 was 5620 nM [rising, single point]. For `CC1=NN(C(=O)Cc2ccc(C)cc2)C(O)(c2cccnc2)C1` (configuration not stated), the AC50 was 3980 nM [falling, partial curve]. With `COc1ccccc1-n1c(C)nnc1SCC(=O)Nc1cc(C)cc(C)c1` the AC50 was 3980 nM [falling, single point]. With `COc1ccc(C(=O)/C=C/Nc2ccc(C)cn2)cc1OC` the AC50 was 100 nM [falling, full curve, poor fit]. With `CC(Cl)C(=O)c1c(N)n(C)c(=O)n(C)c1=O` (configuration not stated) the AC50 was 126 nM [falling, full curve, poor fit]. For `O=C(CN1CCOc2ccccc21)NCc1cccs1`, the AC50 was 5.01 nM [rising, full curve, poor fit]. For `O=C(CSCc1ccc(F)cc1)Nc1nc2c(s1)CCCC2`, the AC50 was 12600 nM [falling, single point]. For `CC1=Nc2cc(C(=O)NC(C)C)ccc2Sc2ccc(C)cc21`, the AC50 was 63.1 nM [falling, partial curve]. In the case of `Cc1ccc(-n2c(SCC(N)=O)nc3c(c2=O)C2(CCCC2)Cc2ccccc2-3)cc1`, the AC50 is reported as 35500 nM [rising, single point]. In the case of `Cc1cc2c(cc1C)NC(=O)CC(C(F)(F)C(F)(F)C(F)(F)F)=N2`, the AC50 is reported as 2000 nM [falling, partial curve, poor fit]. For `CCN(CC)CCCn1c(=S)[nH]c2cc(C(=O)OC)ccc2c1=O`, the AC50 was 5.01 nM [falling, full curve, poor fit]. With `COC(C(=O)Nc1ccc(F)cc1)c1ccccc1` (configuration not stated) the AC50 was 31600 nM [falling, single point]. In the case of `COCCn1c(=O)[nH]c2cc(C(=O)NCCc3ccc(OC)c(OC)c3)ccc2c1=O`, the AC50 is reported as 12.6 nM [rising, full curve, poor fit]. With `O=c1oc2ccccc2cc1-c1cn2cc(Cc3ccccc3F)sc2n1` the AC50 was 2240 nM [falling, partial curve]. With `CN(C(=O)c1cccnc1)c1nnc(-c2cccnc2)s1` the AC50 was 2510 nM [falling, full curve]. For `COc1ccc(C2Nc3ccccc3C(=O)N2c2ccccc2)cc1COc1ccccn1` (configuration not stated), the AC50 was 10000 nM [falling, partial curve]. With `COc1ccc(-c2c(C#N)c(N)nc3sc(C(=O)c4ccccc4)c(N)c23)cc1` the AC50 was 4.47 nM [falling, full curve, poor fit]. In the case of `COCCn1c(N)c(C(=O)NCc2cccs2)c2nc3ccccc3nc21`, the AC50 is reported as 10 nM [rising, full curve, poor fit]. With `O=C(CSc1ncnc2c1oc1ccccc12)Nc1ccccc1C(F)(F)F` the AC50 was 31600 nM [rising, partial curve]. For `Cc1cc(NCCCN2CCOCC2)n2nc(C)c(-c3ccc(F)cc3)c2n1`, the AC50 was 39.8 nM [falling, full curve]. For `COc1cccc(CNC(=O)Cn2cc3c(n2)CCCC3)c1`, the AC50 was 4.47 nM [falling, full curve, poor fit]. For `CN(C)S(=O)(=O)c1ccc(NC(=O)/C=C/c2ccccc2Cl)cc1`, the AC50 was 5620 nM [rising, single point]. With `CCC(C)C(=O)Nc1ncc2c(n1)CC(c1cccs1)CC2=O` (configuration not stated) the AC50 was 25100 nM [falling, single point]. For `CCCOc1ccc(Cn2c(=O)sc3ccccc32)cc1`, the AC50 was 708 nM [falling, full curve]. In the case of `O=C(O)Cn1c(SCCOc2ccccc2F)nc2ccccc21`, the AC50 is reported as 5010 nM [rising, single point]. For `CCOc1ccccc1NC(=O)CSc1nnc(-c2ccccn2)n1Cc1ccco1`, the AC50 was 316 nM [falling, full curve, poor fit]. For `C/C(=N\Nc1nc(C)cc(=O)[nH]1)C1CC1`, the AC50 was 15.8 nM [falling, full curve, poor fit]. In the case of `COC(=O)c1c(C)nc2ccccc2c1-c1ccccc1`, the AC50 is reported as 3160 nM [falling, partial curve]. In the case of `Cc1ccc(C)c2[nH]c(=O)c(CN(CC3CCCO3)S(=O)(=O)c3ccc4c(c3)OCCO4)cc12` (configuration not stated), the AC50 is reported as 12600 nM [falling, partial curve]. In the case of `Cc1ccc2c(c1)N(CC(=O)O)C(=O)CO2`, the AC50 is reported as 31.6 nM [rising, partial curve, poor fit]. For `COc1ccc(-n2c(-c3cccc(OC)c3)nc(=S)c3c2CCCC3)cc1`, the AC50 was 12600 nM [rising, partial curve]. For `CN(/N=C/c1ccncc1)c1cnn(-c2ccc(F)c(Cl)c2)c(=O)c1Cl`, the AC50 was 20 nM [falling, full curve, poor fit]. In the case of `Cc1ccc(NC(=O)/C=C/c2cccc(C(F)(F)F)c2)cc1`, the AC50 is reported as 708 nM [falling, single point]. With `CC1CCc2sc3nc(N4CCN(CCO)CC4)n4ncnc4c3c2C1` (configuration not stated) the AC50 was 501 nM [falling, full curve]. For `Cc1ccc(Cc2c(C)nc3nc(SCC(=O)NCCN4CCOCC4)nn3c2C)cc1`, the AC50 was 631 nM [falling, single point]. For `Cc1ccc(S(=O)(=O)N(c2nc(N(C)C)nc(N(C)C)n2)n2cnnc2)cc1`, the AC50 was 35500 nM [falling, single point]. In the case of `CN(C)CCCN(C(=O)c1sc2ccccc2c1Cl)c1nc2c(F)cccc2s1`, the AC50 is reported as 15800 nM [rising, partial curve]. For `CCNC(=S)N/N=C/c1ccc(OCC(=O)Nc2ccc(C)cc2)cc1`, the AC50 was 25100 nM [falling, single point]. In the case of `CCC(=O)N(Cc1cccs1)C1CCOC(C)(C)C1` (configuration not stated), the AC50 is reported as 1000 nM [falling, full curve, poor fit]. For `COc1ccc(C(=O)Nc2ccc(N3CCN(c4ccc(OC)cc4)CC3)c(C#N)c2)cc1`, the AC50 was 178 nM [falling, full curve, poor fit]. With `CCOC(=O)C1=C(C)NC(=S)N(C(C)=O)C1c1ccccc1` (configuration not stated) the AC50 was 398 nM [falling, partial curve]. With `Cc1cc(-c2nnc(SCc3ccccn3)o2)no1` the AC50 was 3160 nM [falling, single point]. In the case of `O=C1CCCC2=C1C1(CCCCC1)N=C(Nc1nc3ccccc3o1)N2`, the AC50 is reported as 126 nM [falling, full curve]. With `CCOC(=O)c1oc2cccc(O)c2c1CN1CCOCC1` the AC50 was 25.1 nM [rising, full curve, poor fit]. For `Cc1ccccc1C(=O)c1cccn1CC(=O)NCc1ccc2c(c1)OCO2`, the AC50 was 3.16 nM [falling, full curve, poor fit]. For `COc1ccc(Cc2nc(-c3ccc(Cl)cc3)no2)cc1`, the AC50 was 5010 nM [rising, single point]. With `c1ccc2c(c1)CCN2CCN1CCc2ccccc21` the AC50 was 20000 nM [falling, single point]. For `CCOC(=O)CSc1nnc(CNc2cccc(Cl)c2)n1-c1ccccc1`, the AC50 was 891 nM [falling, full curve, poor fit]. With `COc1ccccc1NC(=O)NCCCl` the AC50 was 63.1 nM [falling, full curve]. In the case of `O=C(NCC(c1cccs1)N1CCOCC1)c1ccc([N+](=O)[O-])cc1` (configuration not stated), the AC50 is reported as 631 nM [rising, full curve, poor fit]. In the case of `O=C(Nc1nc2ccccc2n1Cc1ccccc1)c1ccc(COc2ccccc2[N+](=O)[O-])o1`, the AC50 is reported as 3980 nM [rising, single point]. For `Cc1c(N)cccc1-c1nc2ccccc2[nH]1`, the AC50 was 631 nM [falling, single point]. In the case of `COCc1cc(C)nc(SCC(=O)Nc2ccc(C)c(C)c2)c1C#N`, the AC50 is reported as 15800 nM [rising, single point]. For `O=C1c2ccccc2C(=O)N1c1cccc(-c2nc3ccccc3o2)c1`, the AC50 was 158 nM [falling, single point]. With `CCOC(=O)N1CCN(C(=O)c2ccc(N3CCCC3=O)cc2)CC1` the AC50 was 31.6 nM [rising, full curve, poor fit]. For `COc1ccc2nc3sc(C(=O)N4CCN(c5ccc(F)cc5)CC4)cc3cc2c1`, the AC50 was 31600 nM [rising, single point].
